Source: PubChem BioAssay AID743255 (National Center for Advancing Translational Sciences (NCATS), 2014)
Out of some 390,000 compounds screened, about 910 (0.23%) were called active. The inconclusive results got no clear call from the source; some entries with a clear call stand among them for comparison. The call rests on the fitted dose curve; in most records, active means well fitted inhibition curve with a large enough effect; inconclusive means small, poorly fitted or top-dose-only effect; inactive means no such curve, though single readings can be large or run the other way. Where the call is inconclusive, the potency comes from a doubtful curve fit.

Chains of the proteins cited; added tags and fusions are not shown. Lines headed by an entry give the natural chain unless they say otherwise; changes in a name come on top.
UniProt O94782: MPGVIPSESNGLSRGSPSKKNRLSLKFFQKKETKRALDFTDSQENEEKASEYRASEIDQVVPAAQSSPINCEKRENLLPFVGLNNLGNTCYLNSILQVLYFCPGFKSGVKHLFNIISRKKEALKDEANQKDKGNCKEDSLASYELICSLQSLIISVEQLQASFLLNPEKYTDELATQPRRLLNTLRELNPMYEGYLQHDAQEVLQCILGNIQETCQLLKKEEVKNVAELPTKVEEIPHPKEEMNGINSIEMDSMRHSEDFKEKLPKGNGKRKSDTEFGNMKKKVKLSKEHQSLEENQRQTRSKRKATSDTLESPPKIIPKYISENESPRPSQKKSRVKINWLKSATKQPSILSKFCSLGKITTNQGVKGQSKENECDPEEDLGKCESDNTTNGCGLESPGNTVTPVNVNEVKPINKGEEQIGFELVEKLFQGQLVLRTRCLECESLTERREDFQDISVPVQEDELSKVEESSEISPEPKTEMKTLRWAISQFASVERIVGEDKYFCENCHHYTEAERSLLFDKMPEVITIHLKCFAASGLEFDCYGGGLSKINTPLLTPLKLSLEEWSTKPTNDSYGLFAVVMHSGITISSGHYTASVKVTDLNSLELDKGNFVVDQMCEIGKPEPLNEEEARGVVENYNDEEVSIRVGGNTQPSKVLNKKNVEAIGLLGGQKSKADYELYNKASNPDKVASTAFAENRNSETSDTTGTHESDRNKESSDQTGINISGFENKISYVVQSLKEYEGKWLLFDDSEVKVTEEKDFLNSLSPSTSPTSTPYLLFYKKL

target: Ubiquitin carboxyl-terminal hydrolase 1 (Homo sapiens) (UniProt O94782); test: Inhibitors of USP1/UAF1: Primary Screen; details: recombinant USP1/UAF1, Ub-Rhodamine cleavage fluorescence; activity change, negative = inhibition: at 57.1 µM (top of the series); further: nearly all actives have a fitted effect of over 60% in size
How it was run: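 1 nM enzyme complex + cpd, 15 min RT; start with Ub-Rho 150nM final; kinetic fluorescence ex 480/em 540, 6 reads q60 s. Buffer 50mM HEPES pH 7.8, 0.5mM EDTA, 0.1 mg/ml BSA, 1mM TCEP, 0.01% Tween-20.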
On the % scale 0 is the no-effect control and ±100 the full control effect; potency means the concentration at half of the fitted maximal effect.

| SMILES | Potency | activity change, negative = inhibition |
| --- | --- | --- |
| CN(CC(=O)NCCc1ccc(Cl)cc1)S(=O)(=O)c1ccc2c(c1)c(=O)n(C)c(=O)n2C | inconclusive: 50.1 µM [inhibitor, partial curve, poor fit] | – |
| COc1ccc(C(=O)COc2ccc(F)cc2)c(O)c1C | inconclusive: 44.7 µM [inhibitor, partial curve, poor fit] | – |
| CCOc1cc(C2C(C(=O)OC)=C(C)NC3=C2C(=O)c2ccccc23)c(Br)cc1O (configuration not stated) | – | inactive: -14.8% |
| Cc1cc2c(NC(=O)CC(C)(C)CC(=O)O)cccc2nn1 | inconclusive: 31.6 µM [inhibitor, partial curve] | – |
| CC(=O)N1CCc2c(sc3c2c(=O)n(CCc2ccccc2)c(=O)n3Cc2cccc(C)c2)C1 | inconclusive: 50.1 µM [inhibitor, partial curve, poor fit] | – |
| Cc1cccc(C(=O)OCC(=O)NCC(C)C)c1O | inconclusive: 0.562 µM [inhibitor, full curve, poor fit] | – |
| CC(C)c1onc(C(=O)N2CCCCCC2)c1[N+](=O)[O-] | inconclusive: 8.91 µM [inhibitor, partial curve] | – |
| O=c1[nH]c(CSc2nnc(Cc3ccccc3)o2)nc2ccccc12 | – | inactive: 2.14% |
| COc1cccc(Nc2nc(-c3ccc4c(c3)OCCO4)cs2)c1 | – | inactive: -11.9% |
| S=C(NCc1cccnc1)Nc1ccc(Oc2ccccc2)cc1 | inconclusive: 11.2 µM [inhibitor, partial curve, poor fit] | – |
| COC(=O)C1CCN(C(c2ccccc2)c2sc3nc(-c4ccco4)nn3c2O)CC1 (configuration not stated) | – | inactive: -12% |
| CCN1C(=O)[C@H]2[C@H]3CN=C(SCC(=O)c4ccccc4)N3[C@@](CC)(C(=O)OC)[C@H]2C1=O | inconclusive: 39.8 µM [inhibitor, partial curve] | – |
| Cc1c(Cl)cccc1-n1ncc(C(=O)Nc2ccc(F)cc2F)c1C1CCN(C(=O)OC(C)(C)C)CC1 | inconclusive: 50.1 µM [inhibitor, partial curve, poor fit] | – |
| C/C(=N\Nc1ccc([N+](=O)[O-])cc1)c1cc2ccccc2o1 | inconclusive: 0.794 µM [inhibitor, full curve, poor fit] | – |
| COc1ccc(-c2c(C)cc3oc(=O)cc(-c4ccccc4)c3c2C)cc1OC | inconclusive: 44.7 µM [inhibitor, partial curve, poor fit] | – |
| CCOC(=O)C1CCCN(S(=O)(=O)c2csc(C(N)=O)c2)C1 (configuration not stated) | – | inactive: -2.9% |
| O=C(O)CCCC(=O)N1CCC(C(O)(c2ccccc2)c2ccccc2)CC1 | inconclusive: 35.5 µM [inhibitor, partial curve] | – |
| C=CC(COCc1ccccc1)N(C(=O)OC(C)(C)C)S(=O)(=O)c1ccccc1Br (configuration not stated) | inconclusive: 44.7 µM [inhibitor, partial curve, poor fit] | – |
| O=c1cc(-c2ccc(O)c(O)c2)oc2cc(O[C@@H]3O[C@H](CO)[C@@H](O)[C@H](O)[C@H]3O)cc(O)c12 | inconclusive: 70.8 µM [inhibitor, partial curve, poor fit] | – |
| COCCNC(=O)CSc1nc2ccccc2c(=O)n1CCC(=O)N1CCN(c2ccccc2)CC1 | – | inactive: -4.27% |
| COc1ccc(/C=C2/SC(=S)N(CC(=O)O)C2=O)cc1OCc1ccc(Cl)cc1 | inconclusive: 35.5 µM [inhibitor, partial curve] | – |

| SMILES | Potency | activity change, negative = inhibition |
| --- | --- | --- |
| Cc1ccccc1/C=C/C(=O)NCC(=O)N1CCC(N(C)C2CCCCC2C)CC1 (configuration not stated) | – | inactive: -3.92% |
| CN(CC(=O)Nc1ccc(Cl)cc1)CC(=O)Nc1cc(Cl)ccc1C#N | inconclusive: 15.8 µM [inhibitor, single point] | – |
| Cc1ccc(Cl)cc1NS(=O)(=O)c1cc2c3c(c1)CC(=O)N3CCC2 | inconclusive: 0.355 µM [inhibitor, full curve, poor fit] | – |
| CCOc1ccc(S(=O)(=O)Nc2ccc(-c3ccc(OC)nn3)cc2)cc1 | – | inactive: -13.9% |
| CC1=C(C(=O)Nc2ccccc2)C(c2ccc(C)o2)n2c(s/c(=C\c3ccco3)c2=O)=N1 (configuration not stated) | inconclusive: 44.7 µM [inhibitor, partial curve, poor fit] | – |
| Nc1nnc(-c2ccc(Cl)cc2Cl)s1 | – | inactive: -10.4% |
| COc1ccc2nc(N3C(=O)C(O)=C(C(=O)c4ccco4)C3c3ccc(OC)c(OC)c3)sc2c1 (configuration not stated) | inconclusive: 44.7 µM [inhibitor, partial curve, poor fit] | – |
| CCCCCCCCCNC(=O)[C@H](NC(=O)COc1ccccc1)[C@@H]1NC(C(=O)OC)C(C)(C)S1 (some centres not stated) | inconclusive: 25.1 µM [inhibitor, single point] | – |
| Cc1cccc(NC(=O)Cc2csc(COc3cccc(C)c3)n2)c1 | inconclusive: 3.16 µM [inhibitor, partial curve] | – |
| COc1ccc(C(=O)NNC(=O)c2snnc2C)cc1 | inconclusive: 10 µM [inhibitor, partial curve, poor fit] | – |
| C/C=C\C=C/C(=O)Nc1cccc(C2=NOC3(C2)C[C@@H](C(N)=O)N(C(=O)C2(C)CC2)C3)c1 (some centres not stated) | – | inactive: -14.4% |
| O=C(Nc1cccc(-c2ccc(N3CCCCC3)nn2)c1)C(F)(F)F | – | inactive: -20.9% |
| CCOc1cccc2sc(N(CCN(CC)CC)C(=O)c3ccco3)nc12 | inconclusive: 0.708 µM [inhibitor, full curve, poor fit] | – |
| COc1ccc(CCNCC2C(Oc3ccc(Cl)cc3)C(=O)N2c2ccccc2C)cc1OC (configuration not stated) | inconclusive: 44.7 µM [inhibitor, partial curve] | – |
| Cc1cccc(CCNC(=O)C2CCCN(S(=O)(=O)c3ccc4c(c3)oc(=O)n4C)C2)c1 (configuration not stated) | inconclusive: 39.8 µM [inhibitor, partial curve] | – |
| CCOC(=O)CC(=O)CSc1nc(-c2cccnc2)ccc1C#N | active: 31.6 µM | – |
| O=C(NCCO)C1CCN(C(=O)c2ccc(-c3ccccc3)cc2)CC1 | – | inactive: -1.53% |
| CC1(C)CC(=O)CC2(C1)NCC(c1ccccc1)c1c2[nH]c2ccccc12 (configuration not stated) | – | inactive: -9.73% |
| O=C(Nc1ccc(Cl)cc1)Nc1ccc(N2CCCC2)c(S(=O)(=O)Nc2ccccc2Cl)c1 | – | inactive: -9.29% |
| COc1c(-c2ccc(O)c(O)c2)oc2cc(O)cc(O)c2c1=O | – | inactive: -16.9% |
| O=[N+]([O-])c1ccc(N2CCN(c3cccc(Cl)c3)CC2)cn1 | inconclusive: 39.8 µM [inhibitor, single point] | – |

Record cards, as listed above. Values in the order: Potency | activity change, negative = inhibition
Nc1nnc(-c2ccc(Cl)cc2Cl)s1 is entered as – | inactive: -10.4%
COc1ccc2nc(N3C(=O)C(O)=C(C(=O)c4ccco4)C3c3ccc(OC)c(OC)c3)sc2c1 (configuration not stated) is entered as inconclusive: 44.7 µM [inhibitor, partial curve, poor fit] | –
